Assay results taken from US20080045535A1, “Prokineticin 2 receptor antagonists” (priority 2005, published 2008).

Chains of the proteins cited; added tags and fusions are not shown.
UniProt Q8TCW9, whole entry: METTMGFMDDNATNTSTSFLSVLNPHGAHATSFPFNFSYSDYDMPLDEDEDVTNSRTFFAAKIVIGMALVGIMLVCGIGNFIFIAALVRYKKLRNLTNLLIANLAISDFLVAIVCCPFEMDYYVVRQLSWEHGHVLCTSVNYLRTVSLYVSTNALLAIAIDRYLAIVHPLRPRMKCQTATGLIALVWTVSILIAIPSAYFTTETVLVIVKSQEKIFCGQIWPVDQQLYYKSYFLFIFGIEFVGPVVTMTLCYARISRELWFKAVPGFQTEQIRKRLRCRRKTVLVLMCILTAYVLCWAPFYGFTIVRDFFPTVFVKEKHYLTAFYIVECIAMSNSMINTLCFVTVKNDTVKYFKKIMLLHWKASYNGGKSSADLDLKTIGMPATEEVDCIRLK

Target: HEK 293 GPR73 (prokineticin 1 receptor) expressing cells (Homo sapiens, UniProt Q8TCW9)
Assay: PK1 functional assay: screening for PK1 antagonists on the FLIPR (calcium fluorescence)
Conditions: read-out: Ca^2+ Mobilization IC50, HEK 293 GPR73 cells, PK1 ligand at EC50, multiple values = repeat tests

IC50: 11 nM and 46 nM
Structure (SMILES): CNC(=N)NCCNc1nc(=O)n(Cc2ccc(Cl)c(Cl)c2)c(=O)n1Cc1ccc(OC)cc1

A number of entries come with more than one value. Only these are listed. An entry can have further records. Values that stand side by side read as repeated measurements (runs, samples, wells or individuals).
